Data from publication PMC7819943, “Rice protein-binding microarrays: a tool to detect cis-acting elements near promoter regions in rice”.
Some of the results follow.

biological target: T1, OsSMF1 (Oryza sativa, UniProt Q6ZLB0 1-436); assay: protein-binding microarray (RPBM); PBS, 2% BSA, 51.3 ng/ul salmon testes DNA, 50 uM zinc acetate, 200 nM TF, 25 C, 1 h; high values mean tight binding; details: protein: recombinant; tags: N-terminal polyhistidine and DsRed monomer fusion (pET32a); chain copies: 2; label: CyDye5-dUTP incorporated in the synthesized complementary strand; 3' TTTTT single-stranded linker to array surface; dsDNA, one strand shown
T1 sequence: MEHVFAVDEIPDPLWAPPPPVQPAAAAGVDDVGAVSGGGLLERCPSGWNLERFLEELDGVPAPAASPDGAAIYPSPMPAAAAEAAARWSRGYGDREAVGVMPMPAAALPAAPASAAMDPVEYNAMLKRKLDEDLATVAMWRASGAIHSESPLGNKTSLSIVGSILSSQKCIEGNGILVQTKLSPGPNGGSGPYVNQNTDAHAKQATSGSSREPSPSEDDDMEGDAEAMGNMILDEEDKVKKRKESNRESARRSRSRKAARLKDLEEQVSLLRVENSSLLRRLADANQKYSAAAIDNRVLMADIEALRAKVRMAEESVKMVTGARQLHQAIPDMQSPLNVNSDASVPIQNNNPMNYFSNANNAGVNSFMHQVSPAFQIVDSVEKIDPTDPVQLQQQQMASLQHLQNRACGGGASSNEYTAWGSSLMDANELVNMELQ
Method in brief: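 An Axon 4000B scanner gave the binding signal as per-feature fluorescence intensity in arbitrary units. This followed washing of a custom Agilent array that had been incubated for 1 h at 25 °C with 200 nM protein in PBS, 2% BSA, salmon testes DNA and 50 µM zinc acetate. The proteins were transcription factors fused at the N-terminus to polyhistidine and DsRed, expressed in E. coli BL21-CodonPlus and purified on Ni–NTA.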

Row | Sequence | binding signal
1 | ATTTGACGAGCCGCGCCCACGCAAGCAAAACAAGGAAGCCCGGAGTCACCTAGTGCAG | 5180 fluorescence intensity (a.u.)
2 | AAGACGTTGCTGAGGTCTCATCAGTGCGAGAGCAAGGCAACGGAGTCACCTAGTGCAG | 30200 fluorescence intensity (a.u.)
3 | TCAGGGTGAGATGGAGGAAAGTGGGACCCAATGACATGTGCGGAGTCACCTAGTGCAG | 3330 fluorescence intensity (a.u.)
4 | TGCTGACTTGGCGTTGACCTGTGAAATTCTCTCGCTTCACCGGAGTCACCTAGTGCAG | 7210 fluorescence intensity (a.u.)
5 | AGCTTAAACATAGACTTGACACGGGTGCTTGTATTTACAGCGGAGTCACCTAGTGCAG | 3310 fluorescence intensity (a.u.)
6 | GAAGGAATCTTGCCACAAGTGTGGCTATGAACCAAACAATCGGAGTCACCTAGTGCAG | 28200 fluorescence intensity (a.u.)
7 | GGAAAGAGTGACGGGGTGGATGGAAAGAGTGACGGAGTGGCGGAGTCACCTAGTGCAG | 3190 fluorescence intensity (a.u.)
8 | CTTATTAACTCGGGATGATCTGTTGCACTGTCACTGACATCGGAGTCACCTAGTGCAG | 5950 fluorescence intensity (a.u.)
9 | TGCTAAATTATTTGCCACTGAACCCACGTGTCATAGACGTCGGAGTCACCTAGTGCAG | 15000 fluorescence intensity (a.u.)
10 | TTCAGTCACTACAATGCGATCCTGGGCACATGTTTCCTTTCGGAGTCACCTAGTGCAG | 3400 fluorescence intensity (a.u.)
11 | CATATAGAACTGTCCGTGAAGTGTCCTTACATGATCATTTCGGAGTCACCTAGTGCAG | 24800 fluorescence intensity (a.u.)
12 | CACAGTTCGGATCCGACCACTCCACGTCTCCACCCGGCCGCGGAGTCACCTAGTGCAG | 4440 fluorescence intensity (a.u.)
13 | CATGCGATACTACCCCAACGGCCTCGACGACGGCTGCGCCCGGAGTCACCTAGTGCAG | 26900 fluorescence intensity (a.u.)
14 | TTGGTAAAGAAATTTGCCATAGCAACTCTGGTTCTAAGCACGGAGTCACCTAGTGCAG | 3590 fluorescence intensity (a.u.)
15 | CGTATCGTTAAAGATATCCTCTGACAAAATTACATACCAGCGGAGTCACCTAGTGCAG | 3240 fluorescence intensity (a.u.)
16 | CTGAACTATATTTGACGTGTTCCTCCAATTTCCAACCAAACGGAGTCACCTAGTGCAG | 4140 fluorescence intensity (a.u.)
17 | AGATGAGATGAGATGAGTCATGGCCCATGAGTGGTTGATGCGGAGTCACCTAGTGCAG | 5710 fluorescence intensity (a.u.)
18 | AACCATGGAAGGGAGCCGACCGGACCACCTCACCACCGCGCGGAGTCACCTAGTGCAG | 4070 fluorescence intensity (a.u.)
19 | TAATGGCAGTAGCTGCTGGTGGTCGTCATACATTAGCACTCGGAGTCACCTAGTGCAG | 3280 fluorescence intensity (a.u.)
20 | CCTACTCACGCCGTGTCAGACGTTATGTGCCGTGTGAGTTCGGAGTCACCTAGTGCAG | 4330 fluorescence intensity (a.u.)
21 | ATAGCATCCTGTACACTCAAGTCATCCCTGACACACACACCGGAGTCACCTAGTGCAG | 3850 fluorescence intensity (a.u.)

Row | Sequence | binding signal
22 | CTCAATTTCAGGACACATTCGTCGGTGGCATCACCACTACCGGAGTCACCTAGTGCAG | 3250 fluorescence intensity (a.u.)
23 | GCGCCCGTCTTCACTGACGCAAGCAGTGACACACGAATTCCGGAGTCACCTAGTGCAG | 4840 fluorescence intensity (a.u.)
24 | CATGTTTGTGAAGTGACGTATTACATATTGATCTATTTGACGGAGTCACCTAGTGCAG | 8700 fluorescence intensity (a.u.)
25 | TCCGAATCCTACAAGGTCGCCGCTGTCATTATCCGATTCGCGGAGTCACCTAGTGCAG | 3720 fluorescence intensity (a.u.)
26 | CTCAAGCTTTATGCCGCTATACTGATAGGCTAGATTAGGTCGGAGTCACCTAGTGCAG | 4280 fluorescence intensity (a.u.)
27 | TATGCGACACCCTATATAATATCCGATGTGGCACGCTAAACGGAGTCACCTAGTGCAG | 5440 fluorescence intensity (a.u.)
28 | AACCAGCGAACCAATTATAGGCAACCTCATTTCCTTGTTGCGGAGTCACCTAGTGCAG | 3520 fluorescence intensity (a.u.)
29 | TGGATCTCATTTCAGGCCCATCCAACTTGAAAGCTACTAGCGGAGTCACCTAGTGCAG | 29700 fluorescence intensity (a.u.)
30 | TATCATATGTATCAAGAAACACCTCATCATTTTCCATCGCCGGAGTCACCTAGTGCAG | 5920 fluorescence intensity (a.u.)
31 | GCGCGCGCGCGCATTAGCGACACCCAGTATATAATCTGTACGGAGTCACCTAGTGCAG | 4010 fluorescence intensity (a.u.)
32 | TGGGATGAAGGAAATATACTTAGTATTGTTTAGCAATTTTCGGAGTCACCTAGTGCAG | 28300 fluorescence intensity (a.u.)
33 | CGGTGGAGATCCACCAATCAGAAGGCGCCACGTAGCCTTGCGGAGTCACCTAGTGCAG | 10300 fluorescence intensity (a.u.)
34 | TATCGCATTATTTTATGGCGATGTCATAGAGGTACTGTTACGGAGTCACCTAGTGCAG | 3170 fluorescence intensity (a.u.)
35 | GCGAGGGGCGGGGAGAGCAGCGGCGGCGGCGGAGCGCGGCCGGAGTCACCTAGTGCAG | 39200 fluorescence intensity (a.u.)
36 | AAAATGTGAATCTTTTGTATAGCCAGCTTCTTCTAAAACACGGAGTCACCTAGTGCAG | 24900 fluorescence intensity (a.u.)
37 | TTTTAATTTTGGTGTGAACCAACCACCACTGAAGACCTGTCGGAGTCACCTAGTGCAG | 23800 fluorescence intensity (a.u.)
38 | GCGGTGGCGGTTGGGGTGGCGAGTGGGGAGGAGGAGGCGGCGGAGTCACCTAGTGCAG | 5880 fluorescence intensity (a.u.)
39 | GGTGATCGCCGGGGTTCCTGATGTCGTTACCAACGCCGCGCGGAGTCACCTAGTGCAG | 3280 fluorescence intensity (a.u.)
40 | TTAACACGGACACGCCACACTCTGACCACAGCTCACATTCCGGAGTCACCTAGTGCAG | 3630 fluorescence intensity (a.u.)
41 | CATACCGGGTCGGATGCGGCCTCCGCGTCCGCGTCCGCGACGGAGTCACCTAGTGCAG | 3260 fluorescence intensity (a.u.)
42 | GGTGCCCGGGCACCATGGTGCCCCATATGAGTGTCATATACGGAGTCACCTAGTGCAG | 3570 fluorescence intensity (a.u.)

Reprinted at random: 3 records from the list
Row | Sequence | binding signal
34 | TATCGCATTATTTTATGGCGATGTCATAGAGGTACTGTTACGGAGTCACCTAGTGCAG | 3170 fluorescence intensity (a.u.)
33 | CGGTGGAGATCCACCAATCAGAAGGCGCCACGTAGCCTTGCGGAGTCACCTAGTGCAG | 10300 fluorescence intensity (a.u.)
42 | GGTGCCCGGGCACCATGGTGCCCCATATGAGTGTCATATACGGAGTCACCTAGTGCAG | 3570 fluorescence intensity (a.u.)
